We go through six sequences from article PMC10593234.

Construct, isoform or probe ends are uncertain for at least one entry. No signal at the amounts used counts as a negative. At least one verdict was read from the data and is not stated in words by the source. For part of these data: Weaker means in comparison with the reference protein, sequence or condition of that experiment.

What all share (test): EMSA
Details in all cases: 1.6 mM EDTA, 10.3 mM HEPES (pH not stated), 1 mM DTT, 1.3 mM spermidine HCl, 33.3 ng/uL poly dI/dC, 2.5% CHAPS, 4.3% glycerol, 0.1 ng probe in 12 uL, protein translated in vitro, label: 32P (dATP Klenow fill-in)
(In general: A gel shift assay detects complexes by their altered migration in electrophoresis.)

In data set [1] the test system is AG + SEP3ΔC.
The subject of data set [2] is SHP1 + SEP3ΔC.
Data set [3] deals with SHP2 + SEP3ΔC.
[4] abbreviates: near identical to AtMUTE_i1, 6 ug/uL BSA.
Where [5] appears, read: all shifted bands eliminated, 6 ug/uL BSA.
Setting [6] is: heterodimer band abolished, 6 ug/uL BSA.
[7] abbreviates: similar to AtMUTE_i1, 6 ug/uL ….

For the sequence “CTCGAGGATCATGCATGGTTACCCTTTAATACTGGATATCCCCGACTTACTAATTTCGGAAAAATATGTTATGATCATGTCTAGA (double strand) [CrMUTE_i1]”, the binding result was “binds” in data set [1] (setting [4]), “binds” in data set [2] (setting [4]) and “binds more weakly” in data set [3] (setting [4]).

Take “CTCGAGGATCATGCATGGTAATCTTTCTAATATCGGATAGTACTCCAAACTTACTAATCTTGGAAAAATATGTTGTGCCATCTTCTAGA (double strand) [EsMUTE_i1]”: the binding result in data set [1] (setting [4]) was “binds”; in data set [2] (setting [4]), “binds”; in data set [3] (setting [4]) it was “binds more weakly”.

Turning to “CTCGAGGATCATGCATGATAATCTTTCTAATATTGGATTTCCCAACTTACTATTTTTGGAAGAAAACAAAATGTTGTGGTCTAGA (double strand) [AtMUTE_i1]”, the binding result in data set [1] (6 ug/uL BSA) was “binds”; in data set [2] (6 ug/uL BSA), “binds”; in data set [3] (very weak band, 6 ug/uL BSA) it was “binds more weakly”.

“CTCGAGGATCATGCATGATAATCTTTGACAGTTTTAATTTCCCAACTTATTTATGCTGTAAGAAAACAAAATGTTGTGGTCTAGA (double strand) [mCArG_1+2]”: the binding result in data set [1] (setting [5]), in data set [2] (setting [5]) and in data set [3] (setting [5]) was “no binding” each time.

In the case of “CTCGAGGATCATGCATGATAATCTTTCTAATATTGGATTTCCCAACTTATTTATGCTGTAAGAAAACAAAATGTTGTGGTCTAGA (double strand) [mCArG_2]”, the binding result in data set [1] (setting [6]), in data set [2] (setting [6]) and in data set [3] (setting [6]) was “no binding” throughout.

Take “CTCGAGGATCATGCATGATAATCTTTGACAGTTTTAATTTCCCAACTTACTATTTTTGGAAGAAAACAAAATGTTGTGGTCTAGA (double strand) [mCArG_1]”: the binding result is “binds” in data set [1] (setting [7]), “binds” in data set [2] (setting [7]) and “binds more weakly” in data set [3] (setting [7]).
